Experimental data from the supplement of paper PMC10849652.
The other results are listed elsewhere or left out.

Amino acid sequences for entries named in this document (tags omitted). A change or cut given only in a name is not applied to a line headed by its entry.
UniProt Q8WWM7: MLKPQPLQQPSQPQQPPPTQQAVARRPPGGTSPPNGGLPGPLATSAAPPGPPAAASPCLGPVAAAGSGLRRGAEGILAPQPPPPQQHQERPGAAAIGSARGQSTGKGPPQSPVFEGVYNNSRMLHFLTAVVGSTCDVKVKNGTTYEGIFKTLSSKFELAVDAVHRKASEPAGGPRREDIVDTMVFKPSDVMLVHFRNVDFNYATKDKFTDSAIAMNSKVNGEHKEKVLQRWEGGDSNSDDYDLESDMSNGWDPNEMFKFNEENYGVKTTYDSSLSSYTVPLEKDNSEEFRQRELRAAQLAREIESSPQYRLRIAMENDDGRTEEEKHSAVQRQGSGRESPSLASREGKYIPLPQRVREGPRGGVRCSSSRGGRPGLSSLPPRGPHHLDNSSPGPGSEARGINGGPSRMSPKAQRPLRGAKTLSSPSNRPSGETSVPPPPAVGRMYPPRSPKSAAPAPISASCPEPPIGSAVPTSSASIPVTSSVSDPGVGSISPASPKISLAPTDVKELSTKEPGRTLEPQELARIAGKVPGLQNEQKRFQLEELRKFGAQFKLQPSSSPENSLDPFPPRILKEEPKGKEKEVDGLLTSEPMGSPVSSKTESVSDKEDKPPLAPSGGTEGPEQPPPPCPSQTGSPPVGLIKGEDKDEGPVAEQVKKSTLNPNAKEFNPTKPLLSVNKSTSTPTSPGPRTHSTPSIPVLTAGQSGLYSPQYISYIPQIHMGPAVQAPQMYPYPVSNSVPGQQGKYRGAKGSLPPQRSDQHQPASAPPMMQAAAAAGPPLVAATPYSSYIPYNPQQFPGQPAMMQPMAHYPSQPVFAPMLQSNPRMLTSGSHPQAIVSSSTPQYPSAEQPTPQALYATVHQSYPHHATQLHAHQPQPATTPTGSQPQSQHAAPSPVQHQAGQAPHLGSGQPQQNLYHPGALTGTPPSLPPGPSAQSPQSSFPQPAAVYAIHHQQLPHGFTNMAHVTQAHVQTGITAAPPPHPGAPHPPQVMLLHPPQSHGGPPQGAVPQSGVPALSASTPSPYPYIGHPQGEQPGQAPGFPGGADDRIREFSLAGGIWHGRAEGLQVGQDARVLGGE
UniProt P55957: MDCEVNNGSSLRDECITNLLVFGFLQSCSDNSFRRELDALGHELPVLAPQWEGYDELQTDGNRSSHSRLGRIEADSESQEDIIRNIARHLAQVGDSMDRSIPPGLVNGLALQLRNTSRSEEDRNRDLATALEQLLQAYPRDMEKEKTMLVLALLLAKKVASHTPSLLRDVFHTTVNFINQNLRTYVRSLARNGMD
UniProt Q96GX2: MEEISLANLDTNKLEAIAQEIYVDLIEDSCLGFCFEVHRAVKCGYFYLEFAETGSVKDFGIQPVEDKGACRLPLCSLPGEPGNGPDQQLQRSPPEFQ
UniProt O14867: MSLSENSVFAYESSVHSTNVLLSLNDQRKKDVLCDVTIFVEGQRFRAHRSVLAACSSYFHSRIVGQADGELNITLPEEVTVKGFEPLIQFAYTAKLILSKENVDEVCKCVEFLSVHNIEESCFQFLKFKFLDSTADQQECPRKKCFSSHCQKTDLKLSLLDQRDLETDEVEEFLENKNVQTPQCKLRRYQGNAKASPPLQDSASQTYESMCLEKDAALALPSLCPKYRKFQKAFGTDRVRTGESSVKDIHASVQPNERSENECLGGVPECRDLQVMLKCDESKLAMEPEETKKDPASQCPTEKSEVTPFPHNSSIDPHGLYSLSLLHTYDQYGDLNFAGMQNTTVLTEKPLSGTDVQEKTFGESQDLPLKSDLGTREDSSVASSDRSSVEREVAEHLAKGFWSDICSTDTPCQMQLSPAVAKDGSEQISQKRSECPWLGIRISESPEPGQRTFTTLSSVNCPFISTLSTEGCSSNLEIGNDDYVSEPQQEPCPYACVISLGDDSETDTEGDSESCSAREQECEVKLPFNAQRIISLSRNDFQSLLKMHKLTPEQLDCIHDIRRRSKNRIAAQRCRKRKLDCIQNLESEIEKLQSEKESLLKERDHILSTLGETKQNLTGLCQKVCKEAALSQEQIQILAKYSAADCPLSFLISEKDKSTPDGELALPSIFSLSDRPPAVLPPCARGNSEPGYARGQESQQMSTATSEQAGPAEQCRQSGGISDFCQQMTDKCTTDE
UniProt Q9BXH1: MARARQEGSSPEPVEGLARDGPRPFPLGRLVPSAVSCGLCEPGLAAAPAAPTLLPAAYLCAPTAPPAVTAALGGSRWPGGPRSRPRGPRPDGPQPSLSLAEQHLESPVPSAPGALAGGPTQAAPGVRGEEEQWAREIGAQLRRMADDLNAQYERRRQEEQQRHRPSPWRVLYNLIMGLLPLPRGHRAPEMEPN
UniProt Q9NXR7, whole entry, looked up: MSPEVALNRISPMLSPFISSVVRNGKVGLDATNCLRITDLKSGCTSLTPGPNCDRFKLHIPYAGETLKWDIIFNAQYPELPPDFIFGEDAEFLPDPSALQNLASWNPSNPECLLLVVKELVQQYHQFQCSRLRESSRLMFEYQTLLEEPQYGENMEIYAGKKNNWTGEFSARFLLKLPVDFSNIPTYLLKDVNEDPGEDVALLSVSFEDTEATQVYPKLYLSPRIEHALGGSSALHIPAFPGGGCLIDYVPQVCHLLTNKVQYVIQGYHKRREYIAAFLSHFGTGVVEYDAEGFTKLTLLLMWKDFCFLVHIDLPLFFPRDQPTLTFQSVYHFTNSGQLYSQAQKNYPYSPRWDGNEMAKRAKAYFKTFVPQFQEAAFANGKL
UniProt Q14692: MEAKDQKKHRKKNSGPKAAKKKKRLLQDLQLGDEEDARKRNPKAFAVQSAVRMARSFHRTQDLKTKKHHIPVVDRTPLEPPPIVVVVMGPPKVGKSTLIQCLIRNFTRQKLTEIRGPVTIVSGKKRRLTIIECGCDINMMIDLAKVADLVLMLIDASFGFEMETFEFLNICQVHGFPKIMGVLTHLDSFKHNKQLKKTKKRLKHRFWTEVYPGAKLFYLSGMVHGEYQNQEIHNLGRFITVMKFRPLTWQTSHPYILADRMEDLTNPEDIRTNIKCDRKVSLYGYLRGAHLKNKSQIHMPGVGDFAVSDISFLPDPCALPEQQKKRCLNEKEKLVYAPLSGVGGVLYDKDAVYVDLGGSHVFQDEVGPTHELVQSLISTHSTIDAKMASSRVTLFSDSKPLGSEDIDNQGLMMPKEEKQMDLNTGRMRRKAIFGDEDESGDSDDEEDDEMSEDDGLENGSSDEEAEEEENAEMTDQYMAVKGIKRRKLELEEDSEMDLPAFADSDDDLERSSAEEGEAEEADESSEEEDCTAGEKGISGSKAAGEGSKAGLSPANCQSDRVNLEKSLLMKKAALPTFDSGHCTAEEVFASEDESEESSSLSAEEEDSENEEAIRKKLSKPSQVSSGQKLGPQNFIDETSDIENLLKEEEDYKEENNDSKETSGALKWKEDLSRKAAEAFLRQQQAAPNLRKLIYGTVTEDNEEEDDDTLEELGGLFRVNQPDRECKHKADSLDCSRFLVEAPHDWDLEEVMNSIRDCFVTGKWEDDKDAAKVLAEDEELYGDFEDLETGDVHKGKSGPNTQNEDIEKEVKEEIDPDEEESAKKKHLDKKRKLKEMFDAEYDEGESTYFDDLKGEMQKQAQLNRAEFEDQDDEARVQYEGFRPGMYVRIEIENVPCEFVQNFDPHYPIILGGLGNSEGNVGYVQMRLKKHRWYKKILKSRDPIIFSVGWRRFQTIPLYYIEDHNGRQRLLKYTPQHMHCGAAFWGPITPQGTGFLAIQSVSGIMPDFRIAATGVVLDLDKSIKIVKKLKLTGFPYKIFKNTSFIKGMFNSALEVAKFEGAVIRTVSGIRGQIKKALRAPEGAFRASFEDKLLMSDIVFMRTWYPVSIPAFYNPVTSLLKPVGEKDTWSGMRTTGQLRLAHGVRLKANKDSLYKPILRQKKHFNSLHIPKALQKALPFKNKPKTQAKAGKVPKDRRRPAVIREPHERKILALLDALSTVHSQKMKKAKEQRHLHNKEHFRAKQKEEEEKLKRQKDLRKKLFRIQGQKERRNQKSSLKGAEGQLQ
UniProt P25311: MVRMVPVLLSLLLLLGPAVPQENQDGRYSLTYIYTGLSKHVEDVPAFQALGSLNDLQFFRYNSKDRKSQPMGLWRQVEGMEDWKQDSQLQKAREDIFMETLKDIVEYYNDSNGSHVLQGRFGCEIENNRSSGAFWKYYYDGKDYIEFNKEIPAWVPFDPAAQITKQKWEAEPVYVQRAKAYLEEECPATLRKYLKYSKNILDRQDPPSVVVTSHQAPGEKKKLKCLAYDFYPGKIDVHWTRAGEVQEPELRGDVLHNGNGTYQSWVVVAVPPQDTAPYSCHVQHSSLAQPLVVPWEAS
UniProt P21953: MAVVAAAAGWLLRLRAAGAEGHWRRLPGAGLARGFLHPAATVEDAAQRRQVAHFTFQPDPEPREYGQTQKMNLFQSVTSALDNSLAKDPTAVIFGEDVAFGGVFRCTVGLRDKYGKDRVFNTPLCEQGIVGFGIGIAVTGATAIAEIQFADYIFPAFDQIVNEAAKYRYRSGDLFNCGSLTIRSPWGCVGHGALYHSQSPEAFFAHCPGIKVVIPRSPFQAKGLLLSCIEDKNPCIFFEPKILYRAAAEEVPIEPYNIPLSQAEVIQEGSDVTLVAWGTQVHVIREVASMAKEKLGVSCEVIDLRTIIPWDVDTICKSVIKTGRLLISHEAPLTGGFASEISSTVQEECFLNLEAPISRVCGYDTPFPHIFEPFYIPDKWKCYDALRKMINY
UniProt O95817, whole entry, looked up: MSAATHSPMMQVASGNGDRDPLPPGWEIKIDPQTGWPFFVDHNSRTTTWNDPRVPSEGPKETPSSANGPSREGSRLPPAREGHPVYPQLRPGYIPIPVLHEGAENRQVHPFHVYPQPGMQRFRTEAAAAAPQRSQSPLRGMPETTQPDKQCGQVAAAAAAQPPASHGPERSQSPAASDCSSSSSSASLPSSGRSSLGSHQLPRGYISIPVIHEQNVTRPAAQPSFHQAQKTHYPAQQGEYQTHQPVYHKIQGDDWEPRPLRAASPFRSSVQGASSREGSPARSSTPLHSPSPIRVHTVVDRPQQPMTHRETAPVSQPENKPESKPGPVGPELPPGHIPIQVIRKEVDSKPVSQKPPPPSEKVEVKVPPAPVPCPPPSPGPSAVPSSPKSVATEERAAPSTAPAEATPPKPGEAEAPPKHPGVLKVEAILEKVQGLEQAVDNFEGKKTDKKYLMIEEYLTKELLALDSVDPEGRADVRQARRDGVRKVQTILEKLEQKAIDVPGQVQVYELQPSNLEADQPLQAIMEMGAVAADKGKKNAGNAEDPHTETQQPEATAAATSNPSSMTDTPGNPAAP
UniProt Q8WUW1: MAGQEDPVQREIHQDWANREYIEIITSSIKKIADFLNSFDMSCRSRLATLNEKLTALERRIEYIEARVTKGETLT
UniProt P15291: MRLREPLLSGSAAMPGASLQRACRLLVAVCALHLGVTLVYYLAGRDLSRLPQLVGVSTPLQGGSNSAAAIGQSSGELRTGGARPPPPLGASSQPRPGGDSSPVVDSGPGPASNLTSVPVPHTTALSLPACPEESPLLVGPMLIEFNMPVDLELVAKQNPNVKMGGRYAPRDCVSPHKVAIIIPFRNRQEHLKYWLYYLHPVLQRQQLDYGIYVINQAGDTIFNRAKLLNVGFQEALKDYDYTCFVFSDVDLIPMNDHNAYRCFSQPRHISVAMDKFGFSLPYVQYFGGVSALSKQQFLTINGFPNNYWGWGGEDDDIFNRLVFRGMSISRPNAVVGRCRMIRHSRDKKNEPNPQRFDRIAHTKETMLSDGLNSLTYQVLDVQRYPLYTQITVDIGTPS
UniProt Q9H3K6: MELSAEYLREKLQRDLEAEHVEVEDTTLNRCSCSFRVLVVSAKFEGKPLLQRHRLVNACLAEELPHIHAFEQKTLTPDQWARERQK
UniProt O95816: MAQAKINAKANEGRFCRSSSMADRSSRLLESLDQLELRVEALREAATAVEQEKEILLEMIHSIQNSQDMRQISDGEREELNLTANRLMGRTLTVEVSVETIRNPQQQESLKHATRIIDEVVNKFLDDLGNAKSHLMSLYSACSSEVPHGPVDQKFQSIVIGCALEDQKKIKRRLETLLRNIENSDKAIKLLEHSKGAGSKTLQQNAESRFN
UniProt P07738: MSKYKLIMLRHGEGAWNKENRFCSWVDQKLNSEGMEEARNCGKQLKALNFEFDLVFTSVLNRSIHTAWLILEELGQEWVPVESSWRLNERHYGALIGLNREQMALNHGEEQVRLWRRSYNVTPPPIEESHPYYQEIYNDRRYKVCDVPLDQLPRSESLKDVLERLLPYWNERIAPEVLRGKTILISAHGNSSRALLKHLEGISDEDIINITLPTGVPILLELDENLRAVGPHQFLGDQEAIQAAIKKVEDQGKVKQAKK
UniProt Q07817, whole entry, looked up: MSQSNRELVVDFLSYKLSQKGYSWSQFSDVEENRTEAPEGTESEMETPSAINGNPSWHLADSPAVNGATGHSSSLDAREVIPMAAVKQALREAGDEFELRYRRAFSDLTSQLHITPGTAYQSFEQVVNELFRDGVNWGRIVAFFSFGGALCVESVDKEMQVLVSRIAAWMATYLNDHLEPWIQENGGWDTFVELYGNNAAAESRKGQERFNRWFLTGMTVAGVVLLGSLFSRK

Tests used:
Experiment in all cases: log2 fold change, soluble protein after heating vs DMSO (PISA); higher = thermal stabilisation; K562 cells, 10 uM, 30 min; active = over 0.2 and 3.5 SD of the protein, either way, in both replicates (recomputed)
erlotinib = compound: C#Cc1cccc(Nc2ncnc3cc(OCCOC)c(OCCOC)cc23)c1 [erlotinib]
How it was run: (§1)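 Soluble protein was defined as the supernatant after 21,000xg for 90 min. It came from K562 cells at 2×10^6 cells/mL given 10 μM compound for 30 min, heated in aliquots for 3 min across 48°C-58°C, pooled, and extracted in PBS with 0.5% NP-40 at 4°C, and was quantified by TMTpro 16plex LC-MS/MS with equalised channel sums. Thermal stability against control samples, from duplicates, is reported as log2 fold change.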

[1] = compound: C/C(=N\NC(=O)C1=CC(=CC=C1)S(=O)(=O)N2CCOCC2)/C3=C(C=CC(=C3)Cl)O
How it was run: as §1

[2] = compound: C1=CC(=C(C=C1Cl)C2=NC3=NC=CN=C3C(=N2)NC4=CC=NC=C4)F
How it was run: as §1

[3] = compound: C1=CC(=CC=C1C2=NC3=C(N2)C=C(C=C3)C(=O)N)OC4=CC=C(C=C4)Cl
How it was run: as §1

[4] = compound: C1=CC2=C(C=CC(=C2)/C=C\3/C(=O)NC(=NCC4=CC=CS4)S3)N=C1
How it was run: as §1

[5] = compound: C1=CC2=NC=CN=C2C=C1/C=C/3\C(=O)NC(=O)S3
How it was run: as §1

[6] = compound: C1=CC=C(C=C1)C2=NC(=C(N2)C3=CC=NC=C3)C4=CC(=C(C=C4)Cl)O
How it was run: as §1

[7] = compound: C1=CC=C2C(=C1)C3=NNC4=CC=CC(=C43)C2=O
How it was run: as §1

[8] = compound: C1CCN(C1)C(=O)NC2=CC=CC(=C2)NC3=NC=C(C(=N3)NCCC4=CN=CN4)Br
How it was run: as §1

[9] = compound: C1CN(CCC1(CC2=CC=C(C=C2)Cl)N)C3=NC=NC4=C3C=CN4
How it was run: as §1

Target | log2 fold change (erlotinib) | log2 fold change [1] | log2 fold change [2] | log2 fold change [3] | log2 fold change [4] | log2 fold change [5] | log2 fold change [6] | log2 fold change [7] | log2 fold change [8] | log2 fold change [9]
ATXN2L (UniProt Q8WWM7) | inactive: -0.003 | inactive: 0.018 | inactive: -0.035 | inactive: 0.021 | inactive: -0.029 | inactive: -0.001 | inactive: -0.011 | inactive: -0.023 | inactive: -0.002 | inactive: 0.023
BID isoform 2 (UniProt P55957) | inactive: 0.026 | inactive: 0.006 | inactive: 0.014 | inactive: 0.052 | inactive: -0.04 | inactive: 0.012 | inactive: -0.03 | inactive: 0.028 | inactive: -0.05 | inactive: 0.034
BRD4 (UniProt O60885) | inactive: -0.151 | inactive: 0.078 | inactive: 0.054 | inactive: 0.003 | inactive: 0.025 | inactive: -0.003 | inactive: 0.213 | inactive: -0.002 | inactive: -0.121 | inactive: -0.117
ATXN2 (UniProt Q99700) | inactive: -0.047 | inactive: 0.051 | inactive: -0.055 | inactive: 0.026 | inactive: -0.087 | inactive: -0.007 | inactive: 0.014 | inactive: -0.026 | inactive: 0.001 | inactive: 0.004
BROX (UniProt Q5VW32) | inactive: -0.002 | inactive: 0.082 | inactive: 0.213 | inactive: -0.047 | inactive: -0.037 | inactive: 0.021 | inactive: 0.007 | inactive: 0.014 | inactive: -0.007 | inactive: -0.012
BLOC1S1 (UniProt P78537) | inactive: 0.007 | inactive: 0.006 | inactive: 0.094 | inactive: 0.027 | inactive: 0.074 | inactive: 0.009 | inactive: 0.022 | inactive: -0.06 | inactive: 0.04 | inactive: -0.011
BORCS5 (UniProt Q969J3) | inactive: 0.046 | inactive: 0.138 | inactive: 0.014 | inactive: 0.044 | inactive: -0.044 | inactive: 0.034 | inactive: 0.024 | inactive: -0.012 | inactive: 0.015 | inactive: -0.02
ATXN7L3B (UniProt Q96GX2) | inactive: -0.003 | inactive: -0.015 | inactive: 0.061 | inactive: -0.033 | inactive: 0.103 | inactive: 0.072 | inactive: -0.002 | inactive: 0.021 | inactive: -0.001 | inactive: -0.011
BACH1 (UniProt O14867) | inactive: -0.045 | inactive: -0.027 | inactive: -0.057 | inactive: 0.01 | inactive: 0.03 | inactive: 0.049 | inactive: -0.048 | inactive: -0.052 | inactive: -0.019 | inactive: -0.024
BBC3 (UniProt Q9BXH1) | inactive: 0.061 | inactive: -0.016 | inactive: 0.084 | inactive: -0.022 | inactive: 0.103 | inactive: 0.079 | inactive: -0.06 | inactive: -0.006 | inactive: 0 | inactive: -0.11
BABAM2 (UniProt Q9NXR7) | inactive: -0.042 | inactive: -0.004 | inactive: -0.038 | inactive: 0.002 | inactive: -0.007 | inactive: 0.012 | inactive: 0.034 | inactive: -0.011 | inactive: -0.016 | inactive: 0.073
BMS1 (UniProt Q14692) | inactive: -0.067 | inactive: -0.048 | inactive: -0.211 | inactive: 0.021 | inactive: -0.004 | inactive: -0.022 | inactive: -0.035 | inactive: 0.029 | inactive: 0.008 | inactive: -0.2
BCKDK (UniProt O14874) | inactive: 0.074 | inactive: 0.019 | inactive: -0.018 | inactive: 0.07 | inactive: -0.01 | inactive: 0.006 | inactive: -0.029 | inactive: 0.011 | inactive: -0.044 | inactive: -0.006
BCS1L (UniProt Q9Y276) | inactive: -0.017 | inactive: -0.02 | inactive: 0.014 | inactive: 0.028 | inactive: 0.005 | inactive: 0.004 | inactive: -0.025 | inactive: -0.016 | inactive: 0.028 | inactive: 0.048
BCKDHA (UniProt P12694) | inactive: 0.003 | inactive: -0.022 | inactive: -0.045 | inactive: 0.043 | inactive: 0.078 | inactive: -0.021 | inactive: 0.008 | inactive: 0.047 | inactive: 0.024 | inactive: 0.007
ATXN10 (UniProt Q9UBB4) | inactive: -0.001 | inactive: 0.063 | inactive: 0.07 | inactive: -0.007 | inactive: 0.031 | inactive: 0.03 | inactive: 0.021 | inactive: 0.019 | inactive: 0.045 | inactive: 0.033
AZGP1 (UniProt P25311) | inactive: 0.423 | inactive: -0.118 | inactive: -0.063 | inactive: -0.46 | inactive: 0.149 | inactive: -0.368 | inactive: 0.14 | inactive: -0.612 | inactive: -0.379 | inactive: -0.554
BCKDHB (UniProt P21953) | inactive: -0.003 | inactive: 0.052 | inactive: -0.019 | inactive: 0.083 | inactive: -0.086 | inactive: 0.107 | inactive: 0.02 | inactive: -0.016 | inactive: 0.091 | inactive: -0.003
BAG3 (UniProt O95817) | inactive: 0.012 | inactive: -0.024 | inactive: 0.006 | inactive: -0.01 | inactive: 0.025 | inactive: -0.008 | inactive: -0.003 | inactive: -0.044 | inactive: 0.032 | inactive: 0.031
BRCC3 (UniProt P46736) | inactive: 0.01 | inactive: -0.041 | inactive: -0.011 | inactive: -0.005 | inactive: 0.025 | inactive: 0.025 | inactive: 0.006 | inactive: -0.016 | inactive: -0.009 | inactive: 0.049
BRK1 isoform 2 (UniProt Q8WUW1) | inactive: -0.115 | inactive: 0.003 | inactive: 0.279 | inactive: 0.04 | inactive: 0.027 | inactive: 0.072 | inactive: 0.051 | inactive: -0.02 | inactive: -0.08 | inactive: -0.037
B4GALT1 (UniProt P15291) | inactive: -0.095 | inactive: 0.07 | inactive: -0.018 | inactive: 0.047 | inactive: -0.033 | inactive: 0.07 | inactive: -0.035 | inactive: 0.024 | inactive: -0.078 | inactive: 0.017
BRIX1 (UniProt Q8TDN6) | inactive: -0.093 | inactive: -0.05 | inactive: -0.415 | inactive: -0.089 | inactive: 0.003 | inactive: 0.046 | inactive: -0.046 | inactive: -0.167 | inactive: 0.017 | inactive: -0.387
BOLA2 (UniProt Q9H3K6) | inactive: -0.015 | inactive: 0.127 | inactive: 0.132 | inactive: -0.025 | inactive: 0.041 | inactive: 0.027 | inactive: 0 | inactive: 0.014 | inactive: -0.02 | inactive: -0.008
BAG2 (UniProt O95816) | inactive: -0.057 | inactive: -0.018 | inactive: -0.267 | inactive: -0.013 | inactive: -0.1 | inactive: 0.097 | inactive: 0.005 | inactive: 0.025 | inactive: 0.073 | inactive: -0.048
BIRC6 (UniProt Q9NR09) | inactive: -0.058 | inactive: 0.063 | inactive: -0.01 | inactive: 0.004 | inactive: -0.004 | inactive: 0.02 | inactive: -0.002 | inactive: 0.019 | inactive: 0.003 | inactive: -0.059
BPGM (UniProt P07738) | inactive: 0.027 | inactive: 0.055 | inactive: 0.033 | inactive: 0.006 | inactive: 0.002 | inactive: 0.001 | inactive: 0.036 | inactive: -0.033 | inactive: -0.036 | inactive: 0.014
BCL2L1 (UniProt Q07817) | inactive: 0.013 | inactive: 0.002 | inactive: -0.017 | inactive: 0.022 | inactive: 0.012 | inactive: 0.041 | inactive: 0.14 | inactive: 0.054 | inactive: -0.034 | inactive: 0.046
BCAS1 (UniProt O75363) | inactive: 0.027 | inactive: -0.057 | inactive: -0.112 | inactive: 0.016 | inactive: -0.064 | inactive: -0.123 | inactive: -0.048 | inactive: -0.003 | inactive: 0.053 | inactive: -0.038
BMP2K (UniProt Q9NSY1) | inactive: 0.079 | inactive: -0.16 | inactive: -0.016 | inactive: -0.024 | inactive: 0.178 | inactive: -0.042 | inactive: -0.012 | active: 0.388 | inactive: 0.353 | inactive: -0.061

Individual results from above.
In log2 fold change [6], BRD4 (UniProt O60885) is entered as inactive: 0.213
In log2 fold change [4], ATXN2L (UniProt Q8WWM7) is entered as inactive: -0.029
